Results are given in words; binding and its absence hold for the method and conditions named.
How the values were obtained:
Experiment in all cases: two-hybrid; directed assay in the pGAD-GW/pGBT9-GW system: Kaiso 298-573 with MTG16 and MTG16 deletion constructs; growth on quadruple-dropout plates (-leu, -trp, -his, -ala); empty vector bait as negative control; in triplicate
[1] = molecular target: MTG16 Δ5N (yeast two-hybrid construct)
[2] = molecular target: MTG16 ΔNHR1 (yeast two-hybrid construct) (UniProt O75081)
[3] = molecular target: MTG16 Δ7N (yeast two-hybrid construct)

The chains behind the UniProt entries cited, without tags or fusion partners. Where a name states a change or a piece, a line headed by the entry shows the natural chain unless it says otherwise.
UniProt O75081: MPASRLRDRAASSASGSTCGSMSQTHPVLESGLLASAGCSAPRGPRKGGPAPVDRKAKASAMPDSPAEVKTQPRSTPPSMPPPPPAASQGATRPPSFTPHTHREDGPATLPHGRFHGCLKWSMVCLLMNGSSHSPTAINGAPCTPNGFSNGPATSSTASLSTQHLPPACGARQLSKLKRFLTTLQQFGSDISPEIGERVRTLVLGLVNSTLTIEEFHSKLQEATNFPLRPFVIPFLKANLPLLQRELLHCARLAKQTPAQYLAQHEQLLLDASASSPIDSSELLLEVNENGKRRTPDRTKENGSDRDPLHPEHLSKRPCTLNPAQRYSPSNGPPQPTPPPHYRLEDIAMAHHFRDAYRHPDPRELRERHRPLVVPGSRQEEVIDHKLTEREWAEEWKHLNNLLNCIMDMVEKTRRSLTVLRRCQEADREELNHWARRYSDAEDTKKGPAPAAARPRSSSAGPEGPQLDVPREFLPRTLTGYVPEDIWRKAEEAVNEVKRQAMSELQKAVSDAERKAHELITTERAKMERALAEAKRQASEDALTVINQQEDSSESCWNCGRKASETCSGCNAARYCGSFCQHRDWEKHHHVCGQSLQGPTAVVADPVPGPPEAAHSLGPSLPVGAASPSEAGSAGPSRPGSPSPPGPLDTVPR

Measured: binding

B1: Kaiso amino acids 298-573 (yeast two-hybrid clone) (domain or fragment, UniProt Q86T24 298-573)
chain: LPNHMPSSINLLVQNQQTPNSAILTGNKANEEEEEEIIDDDDDTISSSPDSAVSNTSLVPQADTSQNTSFDGSLIQKMQIPTLLQEPLSNSLKISDIITRNTNDPGVGSKHLMEGQKIITLDTATEIEGLSTGCKVYANIGEDTYDIVIPVKDDPDEGEARLENEIPKTSGSEMANKRMKVKHDDHYELIVDGRVYYICIVCKRSYVCLTSLRRHFNIHSWEKKYPCRYCEKVFPLAEYRTKHEIHHTGERRYQCLACGKSFINYQFMSSHIKSVH
no binding: all assays above

Reference: article PMC3521008
